Measured data: PubChem BioAssay AID686938 (Drosophila RNAi Screening Center, 2013)
The deposit covers about 23,000 reagents; this is an unselected part of those with a known target gene and a result. Over the whole deposit, 75 (0.33%) were called active. 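Raw plate signals without normalisation; calls rest on plate z-scores that were not deposited; ratio present for only 364 wells.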 Names joined by + are all predicted targets of the reagent. The record does not give: the dose of the treatment.

Purpose: 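Knock-downs reducing store-operated calcium influx in Drosophila cells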 (primary screen)
Cells: Drosophila S2R+ cells
Reagents: long dsRNA against Drosophila genes, about 0.25 µg dsRNA per well, roughly 10,000 cells
Duration: 5 days of knock-down before the calcium assay
Treatment: thapsigargin (SERCA pump blocker) to empty calcium stores; entry signal taken 4 min after adding it
Measurement: 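Per-well fluo-4 fluorescence in two replicates, unnormalised, measured in resting cells and 4 min after store depletion by the SERCA blocker thapsigargin; ratio of the two present in few wells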
Direction: calcium entry signal: higher = stronger calcium signal after store depletion; entry to resting ratio: higher = more calcium entry relative to resting level; resting calcium signal: higher = higher resting calcium signal
Hit rule: 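Called when the plate z-score of the entry-to-rest ratio, mean of duplicates, falls below −3; wells with low overall dye signal (Fmax z below −2) or more than five off-targets excluded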
Calls: active = strongly reduced calcium entry; inactive = no strong reduction

| target | amplicon | calcium entry signal, replicate 1 (fluorescence units) | calcium entry signal, replicate 2 (fluorescence units) | entry to resting ratio | resting calcium signal, replicate 1 (fluorescence units) | resting calcium signal, replicate 2 (fluorescence units) | outcome |
| --- | --- | --- | --- | --- | --- | --- | --- |
| CG1979 (GeneID 40837) | DRSC12495 | 3.45e7 | 4.93e7 | – | 1.64e7 | 2.04e7 | inactive |
| obe (GeneID 41891) | DRSC15736 | 3.40e7 | 4.91e7 | – | 1.48e7 | 2.13e7 | inactive |
| nAChRalpha3 (GeneID 31767) | DRSC18800 | 3.41e7 | 5.53e7 | – | 1.80e7 | 2.64e7 | inactive |
| CG6983 (GeneID 38964) | DRSC10757 | 4.00e7 | 3.18e7 | – | 2.73e7 | 1.34e7 | inactive |
| CG15653 (GeneID 37388) | DRSC04244 | 4.67e7 | 5.47e7 | – | 2.65e7 | 2.33e7 | inactive |
| CG17928 (GeneID 35009) | DRSC02644 | 3.68e7 | 2.38e7 | – | 1.71e7 | 1.26e7 | inactive |
| nompC (GeneID 33768) | DRSC03581 | 2.58e7 | 1.74e7 | – | 1.35e7 | 1.00e7 | inactive |
| CG7963 (GeneID 41001) | DRSC16355 | 3.76e7 | 3.26e7 | – | 1.84e7 | 1.53e7 | inactive |
| Upf1 (GeneID 32153) | DRSC19667 | 2.73e7 | 3.19e7 | – | 1.52e7 | 1.55e7 | inactive |
| Noc1 (GeneID 39240) | DRSC10921 | 3.07e7 | 2.85e7 | – | 2.08e7 | 1.37e7 | inactive |
| Osi4 (GeneID 40758) | DRSC12134 | 4.13e7 | 3.59e7 | – | 2.11e7 | 1.69e7 | inactive |
| CG42758 (GeneID 10178900) | DRSC10021 | 4.48e7 | 7.24e7 | – | 2.03e7 | 2.86e7 | inactive |
| CG15236 (GeneID 35595) | DRSC04970 | 2.39e7 | 3.09e7 | – | 1.19e7 | 1.28e7 | inactive |
| CG15236 (GeneID 35595) | DRSC21396 | 4.46e7 | 3.93e7 | – | 2.41e7 | 1.92e7 | inactive |
| CG15236 (GeneID 35595) | DRSC23025 | 3.60e7 | 3.80e7 | – | 1.79e7 | 1.80e7 | inactive |
| CG5854 (GeneID 42831) | DRSC15894 | 5.28e7 | 2.36e7 | – | 2.29e7 | 1.26e7 | inactive |
| Hsc70-2 (GeneID 41609) | DRSC16710 | 2.38e7 | 4.70e7 | – | 1.16e7 | 2.64e7 | inactive |
| CG14265 (GeneID 31297) | DRSC18591 | 5.68e7 | 5.10e7 | 2 | 2.82e7 | 2.10e7 | inactive |
| Zmynd8 (GeneID 43730) | DRSC15310 | 2.58e7 | 3.12e7 | – | 1.28e7 | 1.56e7 | inactive |
| Zif (GeneID 40795) | DRSC12514 | 4.07e7 | 4.89e7 | – | 1.72e7 | 1.93e7 | inactive |
| CG15200 (GeneID 32060) | DRSC19647 | 3.53e7 | 4.08e7 | – | 1.76e7 | 1.87e7 | inactive |
| CG14043 (GeneID 33714) | DRSC02368 | 4.03e7 | 3.75e7 | – | 1.82e7 | 1.61e7 | inactive |
| lectin-46Cb (GeneID 53522) | DRSC06611 | 4.45e7 | 4.20e7 | – | 2.04e7 | 1.61e7 | inactive |
| CG32436 (GeneID 40362) | DRSC11683 | 3.12e7 | 4.18e7 | – | 1.48e7 | 1.63e7 | inactive |
| CG32436 (GeneID 40362) | DRSC11796 | 2.87e7 | 3.73e7 | – | 1.33e7 | 1.66e7 | inactive |
| Myb (GeneID 32543) | DRSC20260 | 3.02e7 | 3.06e7 | – | 1.56e7 | 1.50e7 | inactive |
| Cp7Fb (GeneID 31785) | DRSC18034 | 3.25e7 | 4.67e7 | – | 1.73e7 | 2.17e7 | inactive |
| CG12343 (GeneID 36143) | DRSC06135 | 3.23e7 | 3.45e7 | – | 1.49e7 | 1.64e7 | inactive |
| Kdm5 (GeneID 33837) | DRSC03133 | 4.17e7 | – | – | 2.37e7 | – | inactive |
| CG34247 (GeneID 5740480) | DRSC09933 | 3.19e7 | 4.34e7 | – | 1.80e7 | 1.86e7 | inactive |
| CG1958 (GeneID 31661) | DRSC18196 | 3.06e7 | 4.56e7 | – | 1.60e7 | 2.10e7 | inactive |
| CG34203 (GeneID 5740243) | DRSC03855 | 3.43e7 | 6.09e7 | – | 1.54e7 | 2.57e7 | inactive |
| Gyc89Db (GeneID 42002) | DRSC15009 | 5.35e7 | 2.55e7 | – | 2.25e7 | 1.16e7 | inactive |
| CG30325 (GeneID 246541) | DRSC05685 | 3.81e7 | 3.58e7 | – | 1.74e7 | 1.80e7 | inactive |
| Ddx56 (GeneID 33118) | DRSC20567 | 2.24e7 | 1.90e7 | – | 1.31e7 | 1.06e7 | inactive |
| CG9471 (GeneID 41197) | DRSC16499 | 3.65e7 | 4.33e7 | – | 1.75e7 | 2.13e7 | inactive |
| CG15539 (GeneID 43627) | DRSC15075 | 4.20e7 | 4.43e7 | – | 2.04e7 | 1.91e7 | inactive |
| LysRS (GeneID 31904) | DRSC17824 | 2.64e7 | 3.05e7 | – | 1.30e7 | 1.44e7 | inactive |
| CG15252 (GeneID 31931) | DRSC17981 | 2.80e7 | 4.12e7 | – | 1.40e7 | 1.99e7 | inactive |
| St3 (GeneID 37743) | DRSC04098 | 3.41e7 | 5.18e7 | – | 1.85e7 | 2.42e7 | inactive |
| St3 (GeneID 37743) | DRSC04505 | 4.09e7 | – | – | 2.18e7 | – | inactive |
| l(3)87Df (GeneID 49762) | DRSC16982 | 2.54e7 | 4.54e7 | – | 1.20e7 | 5.98e7 | inactive |
| AANATL4 (GeneID 37213) | DRSC06774 | 4.28e7 | 4.48e7 | – | 1.91e7 | 2.09e7 | inactive |
| bsk (GeneID 44801) | DRSC03499 | 4.13e7 | – | – | 2.21e7 | – | inactive |
| Snoo (GeneID 5740414) | DRSC01008 | 4.41e7 | 4.39e7 | – | 2.19e7 | 1.89e7 | inactive |
| Snoo (GeneID 5740414) | DRSC03004 | 4.61e7 | – | – | 2.48e7 | – | inactive |
| Snoo (GeneID 5740414) | DRSC03035 | 3.57e7 | 4.92e7 | – | 1.67e7 | 2.14e7 | inactive |
| CG9147 (GeneID 33855) | DRSC03147 | 3.98e7 | 3.71e7 | – | 1.87e7 | 1.73e7 | inactive |
| CG1418 (GeneID 36035) | DRSC06447 | 2.29e7 | 3.26e7 | – | 1.19e7 | 1.33e7 | inactive |
| CG18609 (GeneID 37158) | DRSC06775 | 5.96e7 | 5.21e7 | – | 2.56e7 | 2.26e7 | inactive |
| CG5214 (GeneID 41360) | DRSC15739 | 3.44e7 | 4.41e7 | – | 1.72e7 | 2.06e7 | inactive |
| CG5214 (GeneID 41360) | DRSC22842 | 3.05e7 | 4.47e7 | – | 1.42e7 | 1.97e7 | inactive |
| CG32271 (GeneID 38392) | DRSC08198 | 3.11e7 | 3.08e7 | – | 1.78e7 | 1.51e7 | inactive |
| Or30a (GeneID 34236) | DRSC03385 | 2.74e7 | 4.28e7 | – | 1.31e7 | 1.74e7 | inactive |
| Hsp70Bb + Hsp70Ba + Hsp70Bc + 1 more | DRSC21247 | 3.77e7 | 4.21e7 | – | 1.97e7 | 1.90e7 | inactive |
| Hsp70Bb + Hsp70Ba + Hsp70Bc + 1 more | DRSC21248 | 4.05e7 | 3.95e7 | – | 2.12e7 | 1.80e7 | inactive |
| LamC (GeneID 36615) | DRSC07453 | 3.36e7 | 4.16e7 | – | 1.51e7 | 2.00e7 | inactive |
| Pym (GeneID 37780) | DRSC22492 | 3.28e7 | 2.25e7 | – | 2.05e7 | 1.21e7 | inactive |
| Pym (GeneID 37780) | DRSC23017 | 4.96e7 | 3.40e7 | – | 2.28e7 | 1.40e7 | inactive |
